Assay results taken from PMC4725915, “Ruthenium(II) Complexes with 2-Phenylimidazo[4,5-f][1,10]phenanthroline Derivatives that Strongly Combat Cisplatin-Resistant Tumor Cells” (Scientific Reports, 2016).

Legend:
[1] = system: A549R; test: MTT cytotoxicity assay, cisplatin-resistant A549R; assay type: cell-based, human; settings: IC50(A549R)/IC50(A549)
Protocol: Compounds 1–4 were evaluated against three tumor cell lines derived from different tissues, including the cervix (HeLa), lung (A549) and cisplatin-resistant lung (A549R) tissues. For comparison, the cytotoxicity of cisplatin was also evaluated. As a control, the toxicities of the complexes were also tested against the normal human cell line (LO2).
The human cervix carcinoma cell line (HeLa), the lung carcinoma cell lines (A549 and A549R), and the human hepatocyte cell line (LO2) were obtained from the Experimental Animal Center at Sun Yat-Sen University (Guangzhou, China). The cells were maintained in Dulbecco’s modified Eagle’s medium (DMEM, Gibco BRL) or Roswell Park Memorial Institute 1640 (RPMI 1640, Gibco BRL) medium supplemented with 10% fetal bovine serum (FBS, Gibco BRL), 100 μg/mL streptomycin, and 100 U/mL penicillin (Gibco BRL) in a humidified incubator under 5% CO2 and 20% O2 at 37 °C. To maintain the resistant phenotype, A549R cells were incubated with 5 μM cisplatin and cultured in drug-free medium for at least a week before use.
The cytotoxicity of the ruthenium complexes and cisplatin were determined by an MTT assay. Briefly, cells were seeded into 96-well microtiter plates at 1 × 10^4 cells per well and grown overnight at 37 °C in a 5% CO2 incubator; then, different concentrations of the complexes in cell culture medium were added to the cultures. The plates were then incubated in an incubator for 48 h under the same conditions. The stock MTT dye solution (15 μL, 5 mg/mL) was added to each well. After 4 h of incubation, the cultures were removed and 150 μL of DMSO was added to each well. The optical density of each well was measured on a microplate spectrophotometer at a wavelength of 595 nm.

[2] = system: A549R MCTSs; test: Cytotoxicity test on 3D MCTSs (Cell TiterGlo ATP); assay type: cell-based, human
Protocol: MCTSs were cultured using the liquid overlay method. A549R cells in the exponential growth phase were dissociated by a trypsin/EDTA solution to gain single-cell suspensions. A number of 3000 diluted A549R cells were transferred to 1.5% agarose-coated transparent 96-well plates with 200 μL of DMEM containing 10% serum. The single cells formed MCTS aggregates approximately 400 μm in diameter after three days with 5% CO2 and 20% O2 at 37 °C. After formation of the MCTSs, each MCTS in a 96-well plate was imaged with a phase contrast microscope (Zeiss Axio Observer D1, Germany) using 10× objective to monitor their color, integrity, diameter, and volume.
A549R MCTSs (diameters ≈400 μm) were treated by carefully replacing 50% of the medium with drug-supplemented standard medium using an eight-channel pipet. In parallel, 50% of the medium containing solvent was replaced with solvent-free medium for the untreated MCTSs. Three A549R MCTSs were treated per condition and drug concentration; the DMSO volume was less than 1% (v/v). […] The cytotoxicities of the Ru(II) complexes toward the MCTSs were measured using ATP concentrations with a Cell TiterGlo kit (Promega). After 30 min of incubation, the MCTSs were carefully transferred into black-sided, flat-bottomed 96-well plates (Corning) and mixed with a pipet for luminescence measurements on an Infinite M200 PRO instrument (TECAN).

## FC(F)(F)c1ccc(-c2nc3c4cccnc4c4ncccc4c3[nH]2)cc1.[Ru+2].c1cnc2c(c1)ccc1cccnc12.c1cnc2c(c1)ccc1cccnc12 [Complex 2]
[1]
  Resistant Index: 1.11

## N.N.[Cl][Pt][Cl] [cisplatin]
[1]
  Resistant Index: 6.69

## Ru(phen)2(tbtfpip)(PF6)2 [Complex 3]
[1]
  Resistant Index: 1.13

## Ru(phen)(bzq)(tbtfpip)(PF6) [Complex 4]
[2]; versus complex 2
  fold lower IC50 on A549R MCTSs than complex 2: 53 fold
[2]; versus complex 3
  fold lower IC50 on A549R MCTSs than complex 3: 33 fold
[1]
  Resistant Index: 0.8
